Results are given in words; binding and its absence hold for the method and conditions named. Binding can be weak; no strength is given. For some assays here: Binding seen in cells or lysates may run through a third protein.
What was measured:
[1] = molecular target: T1, human XKR8 (hXKR8) (human) (UniProt Q9H6D3); test: cryo-EM structure; co-expressed hXKR8-basigin complex purified via the tag on hXKR8 in GDN, SEC on Superose 6, 2 mg/ml; low-resolution reconstruction at 15.3 Å; both purified
T1 sequence: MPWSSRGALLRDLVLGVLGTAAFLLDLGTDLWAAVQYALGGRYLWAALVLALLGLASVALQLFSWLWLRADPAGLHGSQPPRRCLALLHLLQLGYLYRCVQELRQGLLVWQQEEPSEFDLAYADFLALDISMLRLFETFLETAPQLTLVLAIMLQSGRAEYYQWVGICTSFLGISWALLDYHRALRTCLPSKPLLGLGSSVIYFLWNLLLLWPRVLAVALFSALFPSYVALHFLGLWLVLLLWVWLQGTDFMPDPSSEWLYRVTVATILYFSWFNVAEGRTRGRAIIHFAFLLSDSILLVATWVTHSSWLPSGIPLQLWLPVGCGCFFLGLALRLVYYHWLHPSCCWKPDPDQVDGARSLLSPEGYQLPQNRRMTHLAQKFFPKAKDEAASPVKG

[2] = molecular target: T1, human XKR8 (hXKR8) (human); test: pull-down; XKR (N-terminal SBP-myc) and basigin-GFP of the same species co-expressed in HEK293T; affinity purification of the XKR protein on Streptactin without 3C cleavage; basigin detected by in-gel fluorescence, XKR9 by silver stain

For human basigin with C-terminal GFP, the binding [1] was “binds” and the binding [2] was “binds”.

Reference: paper PMC8298096
